From PubChem BioAssay AID1487 (National Center for Advancing Translational Sciences (NCATS), 2009) come the findings set out here.

Values joined by “and” are separate entries in the source; they are usually repeats but may differ in a detail not shown here. Equal entries are not always repeated. This is one part of the list. The main result of the screen is listed elsewhere. These columns were measured beside it and carry no call. Compounds called inactive in the main read-out are mostly missing here. Words in brackets tell the shape of the fitted curve; partial curves, single points and poor fits give uncertain potencies.

The assay can be described thus: qHTS Assay for Modulators of Lamin A Splicing. As to conditions: HeLa LMNA splicing GFP/RFP minigene ratio, 48 h. The gist of the method:
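S3 HeLa stable clones carrying a lamin A-EGFP splicing minigene plus DsRed2 were seeded at 600 cells/well in Opti-MEM with 2% FBS, pin-dosed and incubated 48 h at 37°C. Acumen cytometry (488 nm) gave the GFP/RFP total-intensity ratio.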

Where [1] appears, read: measured here: GFP splicing reporter channel.
[2] abbreviates: measured here: RFP viability control channel.

One may read the AC50 as the midpoint of the concentration-response curve, whichever way the signal moves. `CC(=O)OC1c2c(ccc3ccc(=O)oc23)OC(C)(C)C1OC(=O)CC(C)C` (configuration not stated): the AC50 by setting is: under setting [1], 15.8 µM [rising, single point] and 1.78 µM [rising, partial curve, poor fit]; under setting [2], 11.2 µM [rising, partial curve, poor fit]. As to `CCOC(=O)c1sc(NC(=O)c2ccc(OC(C)=O)cc2)nc1C`, the AC50 under setting [2] is 2.51 µM [falling, partial curve, poor fit]. The same measure, in the same setting: under `COc1ccc(CNS(=O)(=O)NCc2ccc(C)cc2)cc1OC` stands 7.08 µM [falling, partial curve, poor fit].

On to `Cc1ccc(Cn2ncc3c(N4CCN(Cc5ccc(Cl)cc5)CC4)ncnc32)cc1`, for which the AC50 was 3.55 µM [rising, full curve] under setting [1] and 3.55 µM [rising, full curve] under setting [2].

In the case of `COc1ccccc1CNS(=O)(=O)c1ccc(-c2cnc(C3CC3)o2)cc1`, under setting [2], the AC50 is 1.26 µM [rising, partial curve]. The same measure, in the same setting: the same measure for `Cc1cc2cc(CNC(=S)Nc3ccc(OC(F)F)cc3)ccc2n1C`: 25.1 µM [rising, single point]; for `COc1ccc(Cc2nc(-c3ccc(NC(=O)c4cccnc4)cc3)no2)cc1`: 11.2 µM [rising, partial curve]. Same read-out and setting: the same measure for `O=C(c1cc(-c2cccs2)nc2ccccc12)N1CCN(c2ccccc2)CC1`: 6.31 µM [rising, partial curve].

Take `C=CCn1c(N2CCOCC2)nc2c1c(=O)[nH]c(=O)n2C`: the AC50 under setting [1] is 0.316 µM [rising, partial curve].

`O=c1c2c3c(sc2nc2n1CCCCC2)CCCC3`: the AC50 under setting [1] was 35.5 µM [rising, single point] and the AC50 under setting [2] is 31.6 µM [rising, single point]. Consider `CCc1ccc(C2=NN(CCC(=O)NCCc3ccc(OC)c(OC)c3)C(=O)CC2)cc1`, for which, under setting [2], the concentration at half-maximal activity (AC50) is 0.00708 µM [falling, full curve, poor fit].

`O/N=C\c1cccn1-c1nccs1`: the AC50 under setting [2] was 5.62 µM [rising, single point]. As to `O=C(COC(=O)c1cc(=O)[nH]c2ccccc12)Nc1nc(-c2ccccc2)cs1`, the AC50 under setting [1] was 1.41 µM [rising, partial curve]. `Cc1cccc(NC(=O)COC(=O)c2cccc3c2C(=O)c2ccccc2C3=O)c1C`: the AC50 reads like this: under setting [1], 25.1 µM [rising, single point]; under setting [2], 35.5 µM [rising, single point]. In the case of `Nc1c(C(=O)Nc2ccc(S(=O)(=O)N3CCCC3)cc2)sc2nc3ccc(OC(F)(F)F)cc3cc12`, the AC50 was 11.2 µM [falling, partial curve] under setting [1] and 10 µM [falling, single point] under setting [2].

In the case of `Cc1cc(C(=O)Nc2cc(C)n(Cc3ccc(Cl)cc3)n2)no1`, the concentration at half-maximal activity (AC50) is 35.5 µM [rising, single point] under setting [1] and 35.5 µM [rising, single point] under setting [2]. `COc1ccc2c(c1)-c1c(ssc1=S)C(C)(C)N2C(=O)CSC1=NCCS1`: the AC50 under setting [2] was 15.8 µM [rising, single point]. On the same count and under the same terms, the same measure for `CC(=O)N(c1ccc2oc(=O)sc2c1)S(=O)(=O)c1ccccc1`: 14.1 µM [rising, single point]. As for `c1ccc(Nc2nc(-c3cccs3)cs2)nc1`, the AC50 by setting is: under setting [1], 17.8 µM [rising, single point]; under setting [2], 15.8 µM [rising, single point]. `CCOc1ccc(CN=C(N)N=C(N)N)cc1Cl`: the AC50 is 7.94 µM [rising, partial curve, poor fit] under setting [1] and 11.2 µM [rising, single point] under setting [2]. Consider `CC(=O)c1ccc(NC(=S)N(Cc2ccccc2)C(C)C2CC2)cc1` (configuration not stated), for which, under setting [2], the AC50 was 1.26 µM [falling, full curve, poor fit].

Turning to `COc1cc(C(=O)NC(c2ccc(Cl)cc2)c2cc(Cl)c3cccnc3c2O)cc(OC)c1OC` (configuration not stated), under setting [2], the AC50 was 22.4 µM [falling, partial curve].

As for `Cn1c(=O)c2c(-c3ccccc3)n(-n3cnnc3)cc2n(C)c1=O`, the AC50 under setting [2] is 12.6 µM [rising, single point]. Consider `CCOC(=O)N1CCN(S(=O)(=O)c2ccc(C(=O)NNc3nc4ccc(Cl)cc4s3)cc2)CC1`, for which the AC50 reads like this: under setting [1], 2.82 µM [falling, single point]; under setting [2], 5.62 µM [rising, single point]. As to `CCCC(c1nnnn1CS(=O)(=O)c1ccc(C)cc1)N1CCN(CC)CC1` (configuration not stated), the AC50 under setting [1] is 2 µM [falling, partial curve, poor fit]. On to `Cc1cc(C)nc(NC(N)=NCCc2c[nH]c3ccccc23)n1`, for which, under setting [1], the AC50 was 14.1 µM [falling, partial curve, poor fit]. `CN1Cc2cccc3c2C(Cc2ccccc2S3)C1` (configuration not stated): the AC50 is 8.91 µM [rising, partial curve, poor fit] under setting [1] and 15.8 µM [rising, partial curve] under setting [2].

Turning to `Cc1cccc(N2CCN(C(=O)CC(NC(=O)c3ccccc3)c3ccccc3)CC2C)c1` (configuration not stated), under setting [2], the AC50 was 35.5 µM [rising, single point]. On the same count and under the same terms, the same measure for `Cc1c(C(=O)N2CCCCCC2)c(S(=O)(=O)N(Cc2ccccc2)C(C)(C)C)c(C)n1C`: 0.00447 µM [falling, full curve, poor fit]. Take `CCCOc1ccc(OCCN2CCCC(C)C2)cc1` (configuration not stated): the AC50 reads like this: under setting [1], 11.2 µM [rising, single point]; under setting [2], 12.6 µM [rising, single point]. For `Cc1cccc(N2CCN(C(=O)c3cc(C)oc3C)CC2C)c1` (configuration not stated), the AC50 is 35.5 µM [rising, single point] under setting [1] and 25.1 µM [rising, single point] under setting [2]. With `COC(=O)C1=C(C(=O)OC)[C@@H]2N(C)c3ccc(OC)cc3[C@@]23C[C@@H](C(=O)OC)N(S(=O)(=O)c2ccc(C(F)(F)F)cc2)C3=N1`, the AC50 under setting [1] was 0.447 µM [rising, partial curve, poor fit]. On the same count and under the same terms, under `COc1cccc(Nc2ncc3nc(C)c(=O)n(-c4ccccc4)c3n2)c1` stands 12.6 µM [falling, partial curve].

Consider `CS(=O)(=O)N1N=C(c2cccs2)CC1c1ccccc1O` (configuration not stated), for which the AC50 reads like this: under setting [1], 0.794 µM [falling, full curve, poor fit]; under setting [2], 1.58 µM [falling, full curve, poor fit]. Consider `Cc1ccc(N(C)C(=O)c2cc(S(=O)(=O)N3CCOCC3)cn2C)cc1`, for which the AC50 is, setting by setting: under setting [1], 10 µM [falling, partial curve, poor fit]; under setting [2], 0.0708 µM [falling, full curve, poor fit]. For `Cc1cc(NC(=O)CSc2nnc(-c3ccc(Br)o3)n2Cc2ccccc2)no1`, the AC50 under setting [1] was 20 µM [rising, single point].

For the compound `COc1ccc(NC(=O)CSc2nc(N)c3cc4c(nc3n2)CCCC4)cc1`, the AC50 under setting [2] is 10 µM [rising, partial curve, poor fit].

On to `CCOC(=O)N1CCC(NC(=O)c2cc3sccc3n2CC)CC1`, for which the AC50 was 20 µM [rising, partial curve, poor fit] under setting [1] and 35.5 µM [rising, single point] under setting [2]. With `Cc1ccc(/C=C(\C#N)c2nn(-c3ccccc3)c(N)c2C#N)cc1`, under setting [2], the half-maximal activity concentration (AC50) is 20 µM [rising, single point]. In the case of `CCOc1ccc(NC(=S)Nc2cc(C)[nH]n2)cc1`, the AC50 was 5.62 µM [rising, partial curve] under setting [1] and 3.98 µM [rising, single point] under setting [2]. For `COc1ccccc1N1CCN(C(=O)c2ccc(Cl)c(S(=O)(=O)NCc3ccco3)c2)CC1`, the AC50 is 3.98 µM [falling, single point] under setting [1] and 35.5 µM [rising, single point] under setting [2]. With `Cc1cccc2[nH]c3c(N4CCN(C(=O)c5ccco5)CC4)ncnc3c12`, the half-maximal activity concentration (AC50) under setting [2] is 12.6 µM [rising, single point].

With `Fc1ccc(NC(=S)N2CCOCC2)cc1Cl`, the AC50 under setting [2] was 20 µM [rising, partial curve, poor fit]. `CCOc1ccc(NS(=O)(=O)c2ccc(NC(=O)c3cccnc3)c(OC)c2)cc1`: the AC50 reads like this: under setting [1], 0.355 µM [falling, full curve, poor fit]; under setting [2], 0.0891 µM [falling, full curve].

In the case of `CCOC(=O)c1c(NC(=O)C2COc3ccccc3O2)sc(C)c1C` (configuration not stated), the AC50 runs as follows: under setting [1], 22.4 µM [rising, single point]; under setting [2], 25.1 µM [rising, single point]. For `Cc1ccc(SCCC(=O)NCCSCc2ccccc2C)cc1`, the AC50 under setting [1] was 11.2 µM [rising, single point] and the AC50 under setting [2] was 12.6 µM [rising, partial curve]. Regarding `CCOc1ccc(CNC(=O)CCCc2cn(C)c3ccccc23)cc1OC`, the AC50 under setting [1] is 0.0501 µM [falling, full curve]. As for `CN1C(=O)CSc2ccc(C(=O)O)cc21`, the AC50 under setting [2] was 0.1 µM [rising, full curve, poor fit]. With `O=C(/C=C\c1cccs1)c1c(O)ccc2ccc(=O)oc12`, the AC50 under setting [1] is 8.91 µM [rising, partial curve, poor fit] and the AC50 under setting [2] is 10 µM [rising, partial curve]. As for `N#C/C(=C\c1cc([N+](=O)[O-])ccc1Cl)C(N)=O`, under setting [1], the AC50 is 11.2 µM [falling, single point].

As to `COc1ccc(Cn2ccc3nc(C)c(C(=O)NCc4cccc(OC)c4)cc3c2=O)cc1`, under setting [2], the AC50 is 5.01 µM [rising, partial curve]. As to `FC(F)(F)C1=CC(c2ccccc2)=NCCN1`, the AC50 under setting [1] was 35.5 µM [rising, single point] and the AC50 under setting [2] is 15.8 µM [rising, single point].

In the case of `Cc1sc2ncnc(SCC#N)c2c1C`, under setting [1], the AC50 is 31.6 µM [rising, single point].

For the compound `CCCc1nc2ccccc2c(C(=O)OCC(=O)Nc2ccc(S(=O)(=O)N3CCOCC3)cc2)c1CC`, the AC50 was 15.8 µM [rising, single point] under setting [1] and 22.4 µM [rising, single point] under setting [2].
